These are yes or no findings as the source states them, for the method shown. Binding seen in cells or lysates may run through a third protein. Here binding means that the protein was enriched with, or labelled near, the bait; the list need not be complete.
Biological target: Flag-tagged AKR1B10 (aldo-keto reductase family 1 member B10), wild type (human) (UniProt O60218)
Test: affinity purification with mass spectrometry; anti-FLAG immunoprecipitation from lysates of HCT116-shAKR1B10 cells stably expressing Flag-AKR1B10 or Flag-vector; SDS-PAGE, in-gel trypsin digestion, LC-MS/MS

Sequences of proteins named here, by UniProt entry; tags and fusion partners are left off.
UniProt O60218: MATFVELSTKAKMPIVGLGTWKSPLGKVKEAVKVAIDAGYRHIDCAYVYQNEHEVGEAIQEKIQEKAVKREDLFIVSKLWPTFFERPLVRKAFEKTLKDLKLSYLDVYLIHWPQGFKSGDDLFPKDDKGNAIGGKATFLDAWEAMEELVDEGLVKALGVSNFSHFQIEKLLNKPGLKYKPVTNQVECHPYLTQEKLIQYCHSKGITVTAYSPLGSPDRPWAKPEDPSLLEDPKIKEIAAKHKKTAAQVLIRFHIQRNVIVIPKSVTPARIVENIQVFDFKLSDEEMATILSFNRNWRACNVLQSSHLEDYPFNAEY
UniProt P67775: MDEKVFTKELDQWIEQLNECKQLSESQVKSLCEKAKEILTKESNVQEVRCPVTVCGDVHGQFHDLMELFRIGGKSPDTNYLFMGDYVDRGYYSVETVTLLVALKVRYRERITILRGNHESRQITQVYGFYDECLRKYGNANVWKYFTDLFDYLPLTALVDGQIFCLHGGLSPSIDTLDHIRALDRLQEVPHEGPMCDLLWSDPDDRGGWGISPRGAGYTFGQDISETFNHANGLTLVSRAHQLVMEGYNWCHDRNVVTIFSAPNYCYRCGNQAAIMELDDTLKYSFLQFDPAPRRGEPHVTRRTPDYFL

binding: binds
Substance: endogenous PPP2CA (catalytic subunit of PP2A) (from UniProt P67775 1-309) (enzyme)

Reference: paper PMC12372902
